Among the data in doi:10.1101/2021.10.26.465893 are binding values, retold here.

Protein sequences, listed by entry. Tags and fused reporters are not part of them.
UniProt Q14653: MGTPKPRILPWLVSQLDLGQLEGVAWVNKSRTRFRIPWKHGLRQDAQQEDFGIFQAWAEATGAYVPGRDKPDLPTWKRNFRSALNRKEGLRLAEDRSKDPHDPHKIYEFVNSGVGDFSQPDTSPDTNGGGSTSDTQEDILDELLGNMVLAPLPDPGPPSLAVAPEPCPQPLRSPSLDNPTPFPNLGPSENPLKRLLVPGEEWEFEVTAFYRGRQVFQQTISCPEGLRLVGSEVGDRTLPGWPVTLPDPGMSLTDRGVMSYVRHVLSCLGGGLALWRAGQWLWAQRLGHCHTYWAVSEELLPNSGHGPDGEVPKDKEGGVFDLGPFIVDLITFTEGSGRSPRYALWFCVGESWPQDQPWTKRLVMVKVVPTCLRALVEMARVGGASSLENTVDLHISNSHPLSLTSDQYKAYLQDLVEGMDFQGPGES

These are yes or no findings as the source states them, for the method shown. Binding seen in cells or lysates may run through a third protein. Here binding means that the protein was enriched with, or labelled near, the bait; the list need not be complete.

The target in this assay is IRF3 expressed from pCMV-Tag2B-Flag-IRF3 (human) (UniProt Q14653). Put plainly: affinity purification with mass spectrometry.

B1: DDX18 (endogenous, found in the IRF3 nuclear screen) (protein, UniProt Q9NVP1 1-670)
chain: MSHLPMKLLRKKIEKRNLKLRQRNLKFQGASNLTLSETQNGDVSEETMGSRKVKKSKQKPMNVGLSETQNGGMSQEAVGNIKVTKSPQKSTVLTNGEAAMQSSNSESKKKKKKKRKMVNDAEPDTKKAKTENKGKSEEESAETTKETENNVEKPDNDEDESEVPSLPLGLTGAFEDTSFASLCNLVNENTLKAIKEMGFTNMTEIQHKSIRPLLEGRDLLAAAKTGSGKTLAFLIPAVELIVKLRFMPRNGTGVLILSPTRELAMQTFGVLKELMTHHVHTYGLIMGGSNRSAEAQKLGNGINIIVATPGRLLDHMQNTPGFMYKNLQCLVIDEADRILDVGFEEELKQIIKLLPTRRQTMLFSATQTRKVEDLARISLKKEPLYVGVDDDKANATVDGLEQGYVVCPSEKRFLLLFTFLKKNRKKKLMVFFSSCMSVKYHYELLNYIDLPVLAIHGKQKQNKRTTTFFQFCNADSGTLLCTDVAARGLDIPEVDWIVQYDPPDDPKEYIHRVGRTARGLNGRGHALLILRPEELGFLRYLKQSKVPLSEFDFSWSKISDIQSQLEKLIEKNYFLHKSAQEAYKSYIRAYDSHSLKQIFNVNNLNLPQVALSFGFKVPPFVDLNVNSNEGKQKKRGGGGGFGYQKTKKVEKSKIFKHISKKSSDSRQFSH
For B1, the binding result is on record as “binds”.
